# Assay results reported in PubChem BioAssay AID1347076 (National Center for Advancing Translational Sciences (NCATS), 2019).
# The campaign covered roughly 400,000 compounds. About 13,000 (3.2%) were called active. Inconclusive means that the source gave no clear call. Such entries were picked first, then a sample of the others. Calls follow the shape of the dose curve; as a rule, active = well fitted cell-killing curve with a large enough effect; inconclusive = small, poorly fitted or top-dose-only effect, or effect the other way; inactive = flat fitted curve, though single readings scatter. Potencies beside an inconclusive call are fits to weak or partial responses and may not hold up. A structure can be active in one record and inactive in another.
# Assay: qHTS assay for MDR1-selective chemotherapeutics: Primary screen using the drug-selected MDR subline cells KB-V1; also: nearly all actives have a fitted effect of over 60% in size
# Conditions: KB-V1 MDR cells viability, CellTiter-Glo, 72 h; activity change, negative = cytotoxicity: at 46.1 µM (top of the series)
# Method in brief: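 In this primary screen, KB-V1 cells overexpressing P-gp are incubated with library compounds (lowest to highest concentration) for 72 h at 37 degrees C before a luminescent ATP viability read.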
# % is scaled to controls: 0 for no effect and ±100 for the full control effect; potency is read from the fitted curve at half-maximal effect.
SMILES,Potency,"activity change, negative = cytotoxicity"
C=CCn1c2c(c(=O)[nH]c1=S)CN(C(C)c1ccccc1)CN2 (stereo unspecified),"inconclusive: 20.6 µM [rising, single point]",
Cc1ccc(C(=O)C2(C)C3c4cc(Br)ccc4OC(=O)C32C(=O)c2ccco2)cc1 (stereo unspecified),,inactive: -29.4%
O=C(Nc1ccccc1N1CCOCC1)C1CCN(S(=O)(=O)c2ccccc2F)CC1,active: 8.2 µM,
COc1ccc(Cc2nc3ccc(C(=O)N4CCCCC4CO)cc3o2)cc1OC (stereo unspecified),"inconclusive: 23.1 µM [cytotoxic, single point]",
COc1cc(-c2noc(C)c2C#CC2(N)CCCCC2)cc(OC)c1OC,active: 20.6 µM,
O=C(CCCN=C1NS(=O)(=O)c2ccccc21)OCc1ccc(F)cc1,"inconclusive: 29.1 µM [cytotoxic, single point]",
O=C(/C=C/c1ccccc1Cl)OCC(=O)N1CCc2ccccc21,,inactive: 17.5%
C=CCNC(=O)/C(C#N)=C/c1ccccc1OCc1ccc(C(=O)OC)cc1,"inconclusive: 18.4 µM [rising, single point]",
CCCc1c(C(=O)Nc2cc(C)on2)cnn1-c1ccccc1,,inactive: -10.6%
CCNC(=O)C1(C)CCN(Cc2ccc(C#N)cc2)C1 (stereo unspecified),,inactive: 5.36%
Cc1ccc(NC(=O)C2(C)CCN2C(=O)Cc2ccccc2)cc1C (stereo unspecified),,inactive: -18.6%
O=c1oc(C2(O)CCCCC2)cc2ccc(-c3ccc4[nH]ccc4c3)cc12,"inconclusive: 23.1 µM [cytotoxic, single point]",
COc1ccc(Br)cc1CN(C)C(=O)Cc1ccc(S(=O)(=O)N2CCOCC2)s1,"inconclusive: 10.3 µM [cytotoxic, partial curve, poor fit]",
CC(=O)c1ccc(NC(=O)c2ccn[nH]2)cc1,"inconclusive: 29.1 µM [cytotoxic, single point]",
COc1ccc2c(c1)C(C)CC(C)(C)N2C(=O)Nc1ccccc1 (stereo unspecified),"inconclusive: 29.1 µM [rising, single point]",
CCCCn1nnnc1NCc1cccnc1,,inactive: 15.7%
Cc1cccc(-n2c(O)c(C=Nc3cccc(O)c3)c3ccccc3c2=O)n1,,inactive: -10.5%
CC(C)CCN1CCNC(=O)C1CC(=O)N(C)CCCN1CCOCC1 (stereo unspecified),,inactive: 26.7%
Cc1cc(C)nc(SCC(=O)Nc2ccc(N3CCOCC3)c(Cl)c2)n1,"inconclusive: 16.4 µM [cytotoxic, single point]",
NS(=O)(=O)c1ccc(NC(=S)NC(=O)C2CCCC2)cc1,"inconclusive: 29.1 µM [rising, single point]",
O=[N+]([O-])c1ccc(O)c2ncccc12,"inconclusive: 2.06 µM [cytotoxic, full curve]",
CC(C)NC(=O)c1onc(CSc2ccc(F)c(F)c2)c1C(=O)O,,inactive: -7.53%
CN1CCN(c2ccc3c(c2)C2CC3CCN2C(=O)OCc2ccccc2)CC1 (stereo unspecified),,inactive: -5.07%

# Molecules above that have a cyano group (2):
SMILES,Potency,"activity change, negative = cytotoxicity"
C=CCNC(=O)/C(C#N)=C/c1ccccc1OCc1ccc(C(=O)OC)cc1,"inconclusive: 18.4 µM [rising, single point]",
CCNC(=O)C1(C)CCN(Cc2ccc(C#N)cc2)C1 (stereo unspecified),,inactive: 5.36%

# An excerpt of these results, with bars between the fields.
SMILES | Potency | activity change, negative = cytotoxicity
O=C(/C=C/c1ccccc1Cl)OCC(=O)N1CCc2ccccc21 |  | inactive: 17.5%
Cc1cc(C)nc(SCC(=O)Nc2ccc(N3CCOCC3)c(Cl)c2)n1 | inconclusive: 16.4 µM [cytotoxic, single point] | 

# Next compounds follow.

SMILES,Potency,"activity change, negative = cytotoxicity"
Cc1cccc(NC(=O)C(c2cccc([N+](=O)[O-])c2)N2CCCCC2)c1 (stereo unspecified),active: 14.6 µM,
CC(C)(C)c1ccc(-c2noc(CCC(=O)NCc3ccco3)n2)cc1,"inconclusive: 29.1 µM [cytotoxic, single point]",
Cc1ccc(C(=O)N2CCc3ccccc32)o1,"inconclusive: 29.1 µM [cytotoxic, single point]",
COC(=O)c1cc2sccc2n1Cc1ccccc1,"inconclusive: 3.26 µM [rising, full curve]",
Cc1ccc(NC(=S)N(CCCN2CCCC2)Cc2cccn2Cc2ccc(Cl)cc2)cc1,"inconclusive: 11.6 µM [cytotoxic, partial curve]",
CCCNC(=O)c1ccc(SCC(=O)N(CC)CC)c([N+](=O)[O-])c1,"inconclusive: 9.2 µM [cytotoxic, partial curve, poor fit]",
COc1cccc(NS(=O)(=O)c2ccc3[nH]cc(C(=O)NC4CCCCC4)c(=O)c3c2)c1,"inconclusive: 16.4 µM [rising, single point]",
Cc1cc(-c2nn(-c3ccccc3F)cc2CN2CCN(c3ccccn3)CC2)c(C)s1,active: 16.4 µM,
CCN(CC)CCn1c2ccccc2c2nc3ccccc3nc21,"inconclusive: 29.1 µM [cytotoxic, single point]",
CCc1cccc(CC)c1-n1c(SCc2cc(=O)n3ccsc3n2)nnc1-c1cccnc1,"inconclusive: 18.4 µM [cytotoxic, partial curve, poor fit]",
CN(Cc1ccccc1)S(=O)(=O)c1ccc(N2CCOCC2)nc1,"inconclusive: 29.1 µM [cytotoxic, single point]",
C/C(=N\NC(=O)c1ccc(N/N=C(\C)c2ccncc2)cc1)c1ccncc1,"inconclusive: 29.1 µM [rising, single point]",
CCc1nc(SCC(=O)Nc2ccc(F)cc2F)c2c(=O)n(C)c(=O)n(C)c2n1,"inconclusive: 3.66 µM [cytotoxic, partial curve]",
c1ccc(-c2csc3ncnc(-n4cnc5ccccc54)c23)cc1,"inconclusive: 29.1 µM [cytotoxic, single point]",
CCOC(=O)N1CCN(C(=O)COc2ccc(S(=O)(=O)NCc3ccccc3)cc2)CC1,,inactive: 0%
COc1ccc(NC(=O)N(C)C[C@@H]2OCc3ccccc3-c3c(n(C)c4ccccc34)C(=O)N([C@H](C)CO)C[C@H]2C)c(OC)c1,,inactive: 0%
O=C(C1CCN(CC2CC=CCC2)CC1)N(CCc1ccccc1)Cc1ccccc1 (stereo unspecified),,inconclusive: -32.4% [cytotoxic]
CC(C)CC(CCc1ccccc1)OS(N)(=O)=O (stereo unspecified),"inconclusive: 29.1 µM [rising, single point]",
CCOC(=O)C1=CCN(S(=O)(=O)c2ccccc2)C1c1ccc(Cl)cc1 (stereo unspecified),,inactive: 1.58%
Cc1cccc(NC(=O)c2cc([N+](=O)[O-])ccc2NC2CCCCC2)c1,active: 13 µM,
CN(CC(=O)Nc1cccc(F)c1)CC(=O)Nc1cccc(S(=O)(=O)N(C)c2ccccc2)c1,"inconclusive: 29.1 µM [cytotoxic, single point]",
COc1cc(OC)c2cc(C(=O)N[C@H](C(=O)N3CCC[C@H]3C(=O)O)C(C)C)n(C)c2c1,"inconclusive: 18.4 µM [rising, single point]",
Cc1ccc(C(=O)/C=C/c2c(C)nn(-c3ccccc3)c2Cl)cc1,"inconclusive: 29.1 µM [cytotoxic, single point]",
